Values from PubChem BioAssay AID504786 (Drosophila RNAi Screening Center, 2011)
Screen: 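Fly genes required for HIF-dependent transcription when hypoxia is mimicked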 (primary screen). Cells: Drosophila S2 cells with a stable HIF luciferase reporter. Reagent: long dsRNA against Drosophila genes, about 0.2 µg dsRNA per well of a 384-well plate. Timing: three days of knock-down, then 20 h of DFO before reading. Challenge: desferrioxamine (DFO) at 100 µM, an iron chelator that mimics hypoxia, for 20 h. Detection: 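Firefly luciferase driven by the mouse ldh-a hypoxia-response element, measured after 20 h of 100 µM DFO; z-scores per plate, higher means more signal lost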. Reading the numbers: z-score: higher = stronger loss of HIF reporter signal.
In all, the deposit lists about 21,000 reagents; this is an unselected part of those with a known target gene and a result. 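Primary screen; positive scores mean lost reporter signal, so the sign may be inverted from the usual convention.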

CG17129 → z-score, replicate 1: -0.2; z-score, replicate 2: 0
CG14932 → z-score, replicate 1: -0.1; z-score, replicate 2: -0.1
HisRS → z-score, replicate 1: 0; z-score, replicate 2: -0.3
RagC-D → z-score, replicate 1: 0.6; z-score, replicate 2: 0
CG3955 → z-score, replicate 1: -0.2; z-score, replicate 2: 0
CG14451 → z-score, replicate 1: -0.1; z-score, replicate 2: 0.2
Mhc → z-score, replicate 1: -0.2; z-score, replicate 2: 1.8
CG32204 → z-score, replicate 1: 0.5; z-score, replicate 2: -0.3
RIOK1 → z-score, replicate 1: -0.1; z-score, replicate 2: -0.1
dec → z-score, replicate 1: -0.2; z-score, replicate 2: 0.2
CG10254 → z-score, replicate 1: 0; z-score, replicate 2: -0.1
PGRP-SC1a → z-score, replicate 1: -0.3; z-score, replicate 2: -0.4
Send1 → z-score, replicate 1: -0.3; z-score, replicate 2: -0.7
EndoA → z-score, replicate 1: -0.3; z-score, replicate 2: 0
CG9663 → z-score, replicate 1: -0.2; z-score, replicate 2: -0.3
Adgf-D → z-score, replicate 1: -0.4; z-score, replicate 2: 0

Sorted by “z-score, replicate 1” (low to high): some entries from above.
CG3955 → z-score, replicate 1: -0.2; z-score, replicate 2: 0
RagC-D → z-score, replicate 1: 0.6; z-score, replicate 2: 0
